These are yes or no findings as the source states them, for the method shown. In cells and extracts the contact can be indirect. Some entries that bind do so weakly or less than the wild type. For some assays here: Sequences can lack the tags named with a protein.
Columns and labels:
[1] = target: T1, wild-type S100P ectopically expressed in RKO cells (UniProt P25815); test: co-IP; immunoprecipitation with S100P-specific antibody from lysates of RKO cells ectopically expressing wild-type or dimerization-defective S100P
T1 sequence: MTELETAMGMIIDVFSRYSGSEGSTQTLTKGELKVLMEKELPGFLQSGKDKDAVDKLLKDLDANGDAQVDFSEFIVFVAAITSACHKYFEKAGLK

The chains behind the UniProt entries cited, without tags or fusion partners.
UniProt Q00987: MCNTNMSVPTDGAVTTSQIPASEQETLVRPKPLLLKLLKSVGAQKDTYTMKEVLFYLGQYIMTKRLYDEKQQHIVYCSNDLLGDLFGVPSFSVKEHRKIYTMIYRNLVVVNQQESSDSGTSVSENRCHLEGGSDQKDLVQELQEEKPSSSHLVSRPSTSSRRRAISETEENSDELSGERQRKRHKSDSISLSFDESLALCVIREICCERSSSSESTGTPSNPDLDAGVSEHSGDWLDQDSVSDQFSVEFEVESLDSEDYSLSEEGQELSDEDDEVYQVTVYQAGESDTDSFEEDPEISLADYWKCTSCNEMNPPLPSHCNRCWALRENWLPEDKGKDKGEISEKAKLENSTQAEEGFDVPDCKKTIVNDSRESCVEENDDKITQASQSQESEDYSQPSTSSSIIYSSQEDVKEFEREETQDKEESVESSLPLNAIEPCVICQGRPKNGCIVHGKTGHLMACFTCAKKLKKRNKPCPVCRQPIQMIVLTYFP

[2] = target: T2, GST-wtS100P (UniProt P25815); test: pull-down; GST fusion proteins from bacterial lysate supernatants immobilized on Glutathione-S-Sepharose 4B beads, washed, incubated overnight with pre-cleared lysates of RKO or T47D cells containing 0.7 mM CaCl2 or 0.7 mM EGTA; immunoblot with DO-1 (p53) and 2A9 (HDM2); only the target purified
T2 sequence: T1 sequence

binding [1]: binds | binding [2]: binds
Substance: HDM2 oncoprotein (from UniProt Q00987 1-491)
